{"source": "the supplement of paper PMC11150407", "note": "Values joined by “and” are separate entries in the source; they are usually repeats but may differ in a detail not shown here. Equal values may be shown once. Hit rate of the full screen: of about 2,100 compounds, about 180 (8.6%) showed an effect of 50% or more. The list shows a part of the results.", "data": [{"system": "MOLM1 and UCSD/AML1 (averaged)", "test": "cell viability relative to DMSO control (POC); higher = less growth inhibition", "conditions": "1 µM; 72 h", "procedure": "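Primary viability screen in the 3q26 EVI1-high AML cell lines MOLM1 and UCSD/AML1 (1.5e3 cells/well, 384-well), compounds at 1 uM for 72 h. ATP CellTiter-Glo read-out given as percent of viable cells over DMSO control (POC), averaged over duplicates. DMSO was the negative control and 5 uM etoposide the positive control. This mapping covers the MicroSource Spectrum and Selleck anticancer libraries (drug names).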", "values": [{"smiles": "CN1[C@@H](CC(=O)c2ccccc2)CCC[C@H]1C[C@H](O)c1ccccc1", "cell viability": "105%"}, {"smiles": "COc1cc(C)c(C(=O)Oc2cc(C)c(C(=O)O)c(O)c2C)c(O)c1C=O", "cell viability": "91.2%"}, {"smiles": "Cn1cc(-c2ccc3nnc(C(F)(F)c4ccc5ncccc5c4)n3n2)cn1", "cell viability": "101%"}, {"smiles": "c1ccc2[nH]c(-c3cscn3)nc2c1", "cell viability": "119%"}, {"smiles": "OC[C@@H](O)[C@@H](O[C@@H]1O[C@H](CO)[C@H](O)[C@H](O)[C@H]1O)[C@H](O)[C@@H](O)CO", "cell viability": "98.5%"}, {"smiles": "NC(=O)NC(=O)Cc1ccccc1", "cell viability": "107%"}, {"smiles": "COC1=C2C[C@@H](C)C[C@H](OC)[C@H](O)[C@@H](C)/C=C(\\C)[C@H](OC(N)=O)[C@@H](OC)/C=C\\C=C(/C)C(=O)NC(=CC1=O)C2=O", "note": "[Geldanamycin]", "cell viability": "0.865%"}, {"smiles": "CNCCC(Oc1ccc(C(F)(F)F)cc1)c1ccccc1", "note": "(stereo not drawn)", "cell viability": "107%"}, {"smiles": "C=C1C(=O)O[C@@H]2C[C@@]3(C)CCC[C@H](C)C3=C[C@H]12", "cell viability": "74%"}, {"smiles": "CCCCNC(=O)NS(=O)(=O)c1ccc(C)cc1", "cell viability": "105%"}, {"smiles": "CCCS(=O)(=O)Nc1ccc(F)c(C(=O)c2c[nH]c3ncc(-c4ccc(Cl)cc4)cc23)c1F", "note": "[Vemurafenib (PLX4032)]", "cell viability": "114%"}, {"smiles": "COC(=O)c1c(C)cc(O)cc1O", "cell viability": "98.5%"}, {"smiles": "CC(=O)[C@H]1CC[C@H]2[C@@H]3C[C@H](C)C4=CC(=O)CC[C@]4(C)[C@H]3[C@@H](O)C[C@]12C", "cell viability": "85%"}, {"smiles": "O=S(=O)(O)CCS", "note": "[Mesna (Uromitexan, Mesnex)]", "cell viability": "90.7%"}, {"smiles": "O=S(=O)(O)CCS", "cell viability": "104%"}, {"smiles": "CCn1cc(C(=O)O)c(=O)c2cnc(N3CCCC3)nc21", "cell viability": "98%"}, {"smiles": "CCCCCCCCCCCCC[N+](C)(C)Cc1ccccc1", "cell viability": "25.7%"}, {"smiles": "CC(C)(C)NC[C@H](O)c1ccc(O)c(CO)c1", "cell viability": "89.2%"}, {"smiles": "COC(=O)C[C@H]1C(C)(C)C(=O)[C@@H]2CC3=C4CC(=O)O[C@@H](c5ccoc5)[C@]4(C)CC[C@@H]3[C@@]1(C)C2=O", "cell viability": "99.2%"}, {"smiles": "COc1ccc(C(=O)CC(=O)O)c2c1C=CC(C)(C)O2", "cell viability": "99.5%"}, {"smiles": "CC(C)=CCC[C@](C)(O)C1CC=C(C)CC1", "note": "(stereo partly drawn)", "cell viability": "105%"}, {"smiles": "CC1(C)NC(=O)N(c2ccc([N+](=O)[O-])c(C(F)(F)F)c2)C1=O", "cell viability": "110%"}, {"smiles": "CN(C)Cc1ccc(-c2nc3cccc4c3n2CCNC4=O)cc1", "cell viability": "100%"}, {"smiles": "Cc1[nH]c(/C=C2\\C(=O)Nc3ccc(S(=O)(=O)N(C)c4cccc(Cl)c4)cc32)c(C)c1C(=O)N1CCN(C)CC1", "cell viability": "62.8%"}, {"smiles": "CCCCCCc1ccc(O)cc1O", "cell viability": "98.6%"}, {"smiles": "COC(=O)[C@@H]1[C@H]2C[C@H]3c4[nH]c5ccccc5c4CCN3C[C@@H]2CC[C@@H]1O", "cell viability": "101%"}, {"smiles": "C=C(C)[C@@H]1CC=C(C(=O)O)CC1", "cell viability": "107%"}, {"smiles": "C[C@]12C=CC(=O)C=C1CC[C@@H]1[C@@H]2[C@@H](O)C[C@@]2(C)[C@H]1CC[C@]2(O)C(=O)COC(=O)CCC(=O)O", "cell viability": "77.2%"}, {"smiles": "CCCCOc1cc(C(=O)NCCN(CC)CC)c2ccccc2n1", "cell viability": "100%"}, {"smiles": "O=C1CCc2cc(OCCCCc3nnnn3C3CCCCC3)ccc2N1", "cell viability": "91.4%"}, {"smiles": "CCS(=O)(=O)CCn1c([N+](=O)[O-])cnc1C", "cell viability": "99.5%"}, {"smiles": "C[C@@]12C[C@@]3(O)O[C@@H](O1)[C@]1(COC(=O)c4ccccc4)[C@H]3C[C@@]12O[C@@H]1O[C@H](CO)[C@@H](O)[C@H](O)[C@H]1O", "cell viability": "108%"}, {"smiles": "Sc1nc2ccccc2s1", "cell viability": "115%"}, {"smiles": "COc1ccc2cc1Oc1ccc(cc1)C[C@H]1c3cc(c(OC)cc3CCN1C)Oc1c(OC)c(OC)cc3c1[C@H](C2)N(C)CC3", "cell viability": "81.7%"}, {"smiles": "CN(C)CCOC(=O)COc1ccc(Cl)cc1", "cell viability": "111%"}, {"smiles": "O=C(OCc1ccccc1)c1ccccc1", "cell viability": "99.3%"}, {"smiles": "OC(CCN1CCCCC1)(c1ccccc1)C1CCCCC1", "note": "(stereo not drawn)", "cell viability": "94%"}, {"smiles": "N=C(N)N/N=C/c1c(Cl)cccc1Cl", "cell viability": "101%"}, {"smiles": "CN(C)CC[C@@H](c1ccc(Cl)cc1)c1ccccn1", "cell viability": "99% and 100%"}, {"smiles": "CN(CCOc1ccc(CC2SC(=O)NC2=O)cc1)c1ccccn1", "note": "(stereo not drawn) [Rosiglitazone (Avandia)]", "cell viability": "55.1%"}, {"smiles": "Nc1cc(-c2ccncc2)c[nH]c1=O", "cell viability": "102%"}, {"smiles": "C[C@H]1C[C@@H]2[C@H]([C@@H](O)C[C@@]3(C)[C@H]2CC[C@]3(O)C(=O)COC(=O)CCC(=O)O)[C@@]2(C)C=CC(=O)C=C12", "cell viability": "90%"}, {"smiles": "Fc1cc(-c2cccc3ncc(-c4cnn(C5CCNCC5)c4)nc23)cc(F)c1CN1CCOCC1", "cell viability": "24.6%"}, {"smiles": "COC(=O)C(N)CS", "note": "(stereo not drawn)", "cell viability": "100%"}, {"smiles": "CC(N)C12CC3CC(CC(C3)C1)C2", "note": "(stereo not drawn)", "cell viability": "105%"}, {"smiles": "CN(C)[C@@H]1C(O)=C(C(N)=O)C(=O)[C@@]2(O)C(O)=C3C(=O)c4c(O)ccc(Cl)c4[C@@H](O)[C@H]3C[C@@H]12", "cell viability": "94.3%"}, {"smiles": "NC(N)=O", "cell viability": "93.1%"}, {"smiles": "Cn1c([N+](=O)[O-])cnc1COC(N)=O", "cell viability": "100%"}, {"smiles": "N[C@@H](C(=O)N[C@@H]1C(=O)N2C(C(=O)O)=C(Cl)CS[C@H]12)c1ccccc1", "cell viability": "97.7%"}, {"smiles": "CC(Oc1ccccc1)C(=O)N[C@@H]1C(=O)N2[C@@H]1SC(C)(C)[C@@H]2C(=O)O", "note": "(stereo partly drawn)", "cell viability": "93.2%"}, {"smiles": "COc1ccc(-c2cc(C(F)F)nn2-c2ccc(S(N)(=O)=O)cc2)cc1F", "cell viability": "88.1%"}, {"smiles": "C[C@@H]1CC[C@@]2(OC1)O[C@H]1C[C@H]3[C@@H]4CC[C@@H]5C[C@@H](O)CC[C@]5(C)[C@H]4CC[C@]3(C)[C@H]1[C@@H]2C", "cell viability": "97.4%"}, {"smiles": "CCOC(=O)[C@H](CCc1ccccc1)N[C@@H](C)C(=O)N1CCC[C@H]1C(=O)O", "cell viability": "104%"}, {"smiles": "CC(=O)N[C@@H](Cc1ccccc1)C(=O)O", "cell viability": "100%"}, {"smiles": "Cn1nnnc1SCC1=C(C(=O)O)N2C(=O)[C@@H](NC(=O)[C@H](OC=O)c3ccccc3)[C@H]2SC1", "cell viability": "104%"}, {"smiles": "COc1cc(O)c(C)c(O)c1", "cell viability": "106%"}, {"smiles": "OCC(O)C(O)C(O)C(O)C(O)CO", "note": "(stereo not drawn)", "cell viability": "102%"}, {"smiles": "C[C@H](CCC(=O)O)[C@H]1CC[C@H]2[C@@H]3CC[C@@H]4CCCC[C@]4(C)[C@H]3CC[C@]12C", "cell viability": "98.9%"}, {"smiles": "N=C(N)NC(=O)c1nc(Cl)c(N2CCCCCC2)nc1N", "cell viability": "102%"}, {"smiles": "C=CC(=O)N1CCC[C@@H](n2nc(-c3ccc(Oc4ccccc4)cc3)c3c(N)ncnc32)C1", "cell viability": "60.3%"}, {"smiles": "CC1=C(CC(=O)O)c2cc(F)ccc2/C1=C\\c1ccc([S+](C)[O-])cc1", "note": "(stereo not drawn)", "cell viability": "105%"}, {"smiles": "Cc1nc(N)sc1-c1ccnc(Nc2ccc(N3CCOCC3)cc2)n1", "cell viability": "46.7%"}, {"smiles": "CN(C)CCCO[C@@H]1[C@H]2OC(C)(C)O[C@H]2O[C@@H]1[C@H](O)CO", "cell viability": "105%"}]}]}
